Source: patent publication US4737513A, “Novel pyrrole derivatives” (Roussel Uclaf, priority 1984, dated 1988)
Some of these results come from one statement about several compounds together.

Test system: Tetranychus urticae
Experiment: Activity on Tetranychus urticae, test of lethal effect on adults
Type: in vivo
Conditions: general statement in the description; species not specified
Description: (4) Activity on Tetranychus urticae, test of lethal effect on adults
Bean plants having two cotyledon leaves were used which were treated with a Fisher gun with an acetone solution of the product. After drying, 25 females of the acaridan Tetranychus urticae were placed on each leaf, that is 50 individuals per experimental dose per plant. The efficacity was checked after 80 hours of contact, and the LD 50 was indicated in mg/hl.

Row | Structure (SMILES) | acaricidal properties
1 | C#CCn1ccc(COC(=O)[C@@H]2[C@H](/C=C(/F)C(=O)OCC)C2(C)C)c1C(F)(F)F [Example 38, [1-(2-propynyl-2-trifluoromethyl-1H-pyrrol-3-yl]-methyl (1R,cisΔE) 2,2-dimethyl-3-[3-ethoxy-3-oxo-2-fluoro-1-propenyl]-cyclopropane carboxylate] | remarkable acaricidal properties
2 | C#CCn1ccc(COC(=O)[C@@H]2[C@H](/C=C(/F)C(=O)OC(C)(C)C)C2(C)C)c1C(F)(F)F [Example 40, [2-trifluoromethyl-1-(2-propynyl)-1H-pyrrol-3-yl]-methyl (1R,cis,ΔE) 2,2-dimethyl-3-(3-tertbutyloxy-3-oxo-2-fluoropenyl)-cyclopropane carboxylate] | remarkable acaricidal properties
3 | C#CCn1ccc(C(C#N)OC(=O)[C@@H]2[C@H](C=C(Br)Br)C2(C)C)c1C#N (stereo partly drawn) [Example 39, (R,S)-cyano-/1-(2-(propynyl-2-cyano-1H-pyrrol-3-yl/-methyl (1R,cis) 2,2-dimethyl-3-(2,2-dibromo-ethenyl)-cyclopropane carboxylate] | remarkable acaricidal properties
